# Data as given in PubChem BioAssay AID1347426 (Functional Genomics Laboratory (NCATS/FGL), 2020).
# Screen size: about 31,000 sequences; about 1,400 (4.5%) were called active.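 The calls were made as follows: active = median seed-adjusted z-score above 1 or below -1; inactive = the rest.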 This is one part of the list.
# Assay: Novel Modifiers of Survival Motor Neuron (SMN) Protein: Gene Identification via Genome-wide siRNA Screen;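 also: luminescence tracks full-length SMN protein made from the SMN2 reporter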
# Conditions: HEK293T SMN2-luciferase reporter, siRNA knockdown, 72 h; actives lie on both sides
# Summary of the method: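 Each of three siRNAs per gene is reverse-transfected (1 pmol) into reporter HEK293T cells whose luciferase output tracks SMN protein level. After 72 h culture, ONE-Glo luminescence is control-normalized, log10-transformed and MAD-standardized; Common Seed Analysis deprioritizes seed-driven hits.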
row,Sequence,median seed-adjusted z-score
1,CAGUUCGUGUCAACAGGAATT against LYPLA1,inactive: 0
2,GAGUACGACUGGAACUUAATT against CALR3,inactive: -0.0828
3,GCUACUACAUGAUUGGUGATT against NNMT,inactive: -0.095
4,GCACGUUUCCUAAUUGAUATT against CPSF2,inactive: 0.0263
5,GGCAGUUAAUGGAACAAUUTT against MTMR7,inactive: -0.207
6,GCUGUGAUCUCAUGGAUCATT against KLHL3,inactive: -0.237
7,CCUACAAGCUGGACAACAATT against CPNE6,inactive: -0.528
8,CACUUGAACAAGAACCAGATT against PCDH17,inactive: 0.451
9,CCAACCACGCUAUAGUUCATT against BMP5,inactive: 0.0733
10,GGCUAUCCACGUGAAGAAATT against GABRG2,inactive: -0.479
11,GCCUCAAUCAGUAUUCAUATT against SERPINH1,inactive: 0.186
12,GCAUUUCAAGGGAUCCGUATT against LRRTM4,inactive: 0
13,GACGAACCCUUAGUGCUAATT against F9,inactive: 0.332
14,AAAUGUCCCGAAUCGUAUUTT against GABRA5,inactive: 0
15,GCAUCAGCGCGUUCAUUCATT against ZNF623,inactive: 0.272
16,GGAUCACCAGGAAAGAGUATT against ACTR5,inactive: -0.376
17,CCACUAUUGUCAGCCUGCATT against ID2,inactive: 0.783
18,GACCUUCAAGAUAGACAUUTT against RAD23B,inactive: 0.639
19,GCUCUUCGAUCUGAUUGAATT against CLK2,inactive: -0.0591
20,GUAUCUGCAAUUAUCCAAATT against KCNH7,inactive: 0.0639
21,ACAUCGUGCUAAACUCUCATT against BCL6B,inactive: 0
22,UAUGGGCUCUUGAACCAAATT against MTNR1B,inactive: -0.393
23,GUAUGAUUAUGCUGGGAAATT against COX7A2L,inactive: 0

row,Sequence,median seed-adjusted z-score
1,GGCUACAACAUGACUCGUATT against FZD10,inactive: -0.226
2,GGUAUACAAGGAAAGGUUATT against EIF4E,inactive: -0.404
3,GGCUGAAGAGCUACGAGAATT against POR,inactive: 0.189
4,GCUCAUACUCUACCACCUATT against SLC1A5,inactive: -0.104
5,AGACAAGUAUGUGAGGAAUTT against BTN2A2,inactive: -0.0599
6,CAGAGUAUCUACUGACAAATT against CDADC1,inactive: 0.544
7,CCUCUGCCUUGGACACCAUTT against SNCG,inactive: -0.169
8,CAGCAGCUAGUGGAAGACATT against ECEL1,inactive: -0.301
9,GGACUCAUCCGACAGCAUATT against ATF1,inactive: -0.112
10,GAACAAGGCAUAAACGGCATT against IBSP,inactive: -0.111
11,CUUGUGAGUUUAAAACGUATT against HSF2,inactive: -0.0228
12,CGGCUUCCGUUGUUGCAAATT against SLC16A1,inactive: -0.277
13,UGACGACACUGACCGCAGATT against UBE2S,inactive: 0.348
14,GCAAGGAUUUGGACGGUUUTT against MYST4,inactive: 0.138
15,GGCAAUGCUUUACUAUGAATT against ABCG8,inactive: -0.0233
16,GGAUAUUGAAAGUUAUGAATT against SGCZ,inactive: 0.0893
17,GCUACACCCUAAUCACAGATT against SLC22A1,inactive: -0.637
18,AGAUAGAAAUUGACUUUGATT against BRD3,inactive: 0.633
19,GGUUCACAGUGCAUAUACATT against CASP10,inactive: -0.0372
20,CCAACCUUUUUAGACAUCATT against ZNF394,inactive: -0.462
21,CCCUCUCCGUGUCCUACAATT against SLC6A17,inactive: -0.41
22,CAUCACUUGUGAUGGUAAATT against FABP5,inactive: -0.258
23,CGGCACCUGUUUCAAGAGATT against CHRND,inactive: -0.112

row,Sequence,median seed-adjusted z-score
1,CGUCGAUAUCAGAAUCCUATT against MST101,inactive: -0.293
2,GCACUUACCAAAAAUCCGATT against MAP4K3,inactive: -0.49
3,GUAUCUGGGUUGCACAUGATT against HRH1,inactive: 0.204
4,GCAAUGUGCCUACUCAUAUTT against LCLAT1,inactive: 0
5,CCAAAAUUAUGGUCUGUGATT against CNTFR,inactive: 0
6,GUAUCAUGGAUGGAAAAGATT against ASRGL1,inactive: 0
7,GCACCGAGCUUUACAGUGUTT against LARP1,inactive: 0.251
8,GCAGUAUGAUGAGGAUGGATT against KLC4,inactive: 0
9,CGGCACUAAUGAUCUGGAATT against SEC11A,inactive: -0.494
10,GCCUGGGAAUGAACAUUGUTT against MS4A12,inactive: -0.881
11,CAGUGUCCGAGAUCAUAGATT against ACSBG1,inactive: 0.113
12,GAUAUGUCUUCUACAAUAATT against ZNF280A,inactive: -0.207
13,CCUUAGUCCUGAUCAACCUTT against TTLL6,inactive: -0.661
14,AACCCUACCUGGCAUUGUATT against DYNLL2,inactive: -0.201
15,CCAUCCAUCCUUCAACUUATT against PNPLA3,inactive: -0.0642
16,GCACUAGCAGAGUCCGAAATT against OPRK1,active: -1.08
17,CUACCACAACUUCACCAAATT against TSP50,inactive: 0.133
18,CGAGAUAGGCAAUACGAAATT against ENTPD7,inactive: 0.368
19,CAAGCGAUGUUUUUCGUUUTT against USP13,inactive: -0.044
20,GGAUGUGGACGGUAUGUCATT against BRAP,inactive: 0.267
21,CAUUCGUCGCUGAACAGAATT against EIF4G1,inactive: -0.978
22,CCCAACAACUGGUAUCUUUTT against CD33,inactive: -0.355
23,CCACCUAGCUUGUAACGAATT against EP400,active: 1.83

# 2 entries from above, with tabs.
row	Sequence	median seed-adjusted z-score
21	ACAUCGUGCUAAACUCUCATT against BCL6B	inactive: 0
22	UAUGGGCUCUUGAACCAAATT against MTNR1B	inactive: -0.393
